Consider four molecules from paper PMC9979126.

Results are given in words; binding and its absence hold for the method and conditions named. For some of these results: In cells and extracts the contact can be indirect. Some binding calls cover weakened binding; strength is not graded here. For some of these results: Where a sequence is shown, tags or fusion partners need not be part of it.

The target in assay [1] is T1, HA-Spi2a (serine protease inhibitor 2A, Serpina3g) (mouse) (UniProt Q5I2A0).
T1 sequence: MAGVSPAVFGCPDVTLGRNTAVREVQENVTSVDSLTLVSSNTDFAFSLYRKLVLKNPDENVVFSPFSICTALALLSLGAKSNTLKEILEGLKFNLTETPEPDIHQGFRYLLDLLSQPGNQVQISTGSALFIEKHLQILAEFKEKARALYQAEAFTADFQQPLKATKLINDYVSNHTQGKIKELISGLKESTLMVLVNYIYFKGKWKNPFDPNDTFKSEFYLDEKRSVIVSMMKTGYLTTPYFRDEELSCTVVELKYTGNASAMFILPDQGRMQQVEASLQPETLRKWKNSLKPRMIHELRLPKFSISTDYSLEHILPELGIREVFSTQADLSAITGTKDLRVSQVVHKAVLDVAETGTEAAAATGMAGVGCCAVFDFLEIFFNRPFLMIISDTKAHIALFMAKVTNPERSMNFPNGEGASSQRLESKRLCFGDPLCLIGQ
The assay is described as follows: co-IP; HA antibody IP from BMDMs transduced with control or HA-Spi2a-lentivirus; western blot. Background: A western blot detects proteins with antibodies after separation by electrophoresis.

Assay [2] deals with T2, Recombinant Spi2a (mouse) (UniProt Q5I2A0).
T2 sequence: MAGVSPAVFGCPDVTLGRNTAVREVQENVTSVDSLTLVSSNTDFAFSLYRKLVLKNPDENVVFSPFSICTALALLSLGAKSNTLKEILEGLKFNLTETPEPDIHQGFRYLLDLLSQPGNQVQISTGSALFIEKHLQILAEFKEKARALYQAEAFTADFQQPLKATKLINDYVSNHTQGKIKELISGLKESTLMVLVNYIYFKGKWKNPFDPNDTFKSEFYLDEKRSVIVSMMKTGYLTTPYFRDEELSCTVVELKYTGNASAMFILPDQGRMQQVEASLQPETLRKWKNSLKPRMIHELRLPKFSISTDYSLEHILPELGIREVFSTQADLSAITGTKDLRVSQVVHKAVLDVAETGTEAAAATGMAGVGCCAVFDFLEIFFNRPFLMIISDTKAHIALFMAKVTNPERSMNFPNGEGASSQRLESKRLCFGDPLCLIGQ
The assay can be described thus: co-IP; in vitro: recombinant Spi2a and IKKβ mixed, incubated with Spi2a or IKKβ antibody for 4 h, then protein A/G beads for 2 h at 4 °C; western blot; both purified.

Assay [3] addresses T1, HA-Spi2a (serine protease inhibitor 2A, Serpina3g) (mouse). The assay can be described thus: co-IP; HA or His antibody IP from BMDMs (macrophages) infected with HA-Spi2a- and His-Ikkβ-lentivirus; western blot.
Assay [4] has as its target T3, SERPINA3 (human orthologue of Spi2a) (human) (UniProt P01011).
T3 sequence: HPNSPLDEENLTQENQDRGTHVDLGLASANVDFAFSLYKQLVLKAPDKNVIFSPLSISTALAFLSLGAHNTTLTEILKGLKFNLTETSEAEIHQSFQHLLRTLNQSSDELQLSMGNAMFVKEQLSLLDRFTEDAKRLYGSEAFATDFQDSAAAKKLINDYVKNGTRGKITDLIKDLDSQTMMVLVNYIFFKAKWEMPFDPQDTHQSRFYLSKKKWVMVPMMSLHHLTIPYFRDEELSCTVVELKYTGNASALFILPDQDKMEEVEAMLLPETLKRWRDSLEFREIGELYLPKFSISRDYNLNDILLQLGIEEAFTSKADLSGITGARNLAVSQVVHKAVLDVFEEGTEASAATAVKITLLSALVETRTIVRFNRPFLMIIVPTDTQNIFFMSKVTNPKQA
The assay can be described thus: co-IP; human macrophages; told only as 'like the data in BMDMs' (Fig. S10j not shown).

B1: IKKβ (IkappaB kinase β), endogenous in BMDMs (protein, UniProt O88351 1-757)
chain: MSWSPSLPTQTCGAWEMKERLGTGGFGNVIRWHNQATGEQIAIKQCRQELSPKNRNRWCLEIQIMRRLNHPNVVAARDVPEGMQNLAPNDLPLLAMEYCQGGDLRRYLNQFENCCGLREGAVLTLLSDIASALRYLHENRIIHRDLKPENIVLQQGEKRLIHKIIDLGYAKELDQGSLCTSFVGTLQYLAPELLEQQKYTVTVDYWSFGTLAFECITGFRPFLPNWQPVQWHSKVRQKSEVDIVVSEDLNGAVKFSSSLPFPNNLNSVLAERLEKWLQLMLMWHPRQRGTDPQYGPNGCFRALDDILNLKLVHVLNMVTGTVHTYPVTEDESLQSLKTRIQENTGILETDQELLQKAGLVLLPDKPATQCISDSKTNEGLTLDMDLVFLLDNSKINYETQITPRPPPESVSCILQEPKRNLSFFQLRKVWGQVWHSIQTLKEDCNRLQQGQRAAMMSLLRNNSCLSKMKNAMASTAQQLKAKLDFFKTSIQIDLEKYKEQTEFGITSDKLLLAWREMEQAVEQCGRENDVKHLVERMMALQTDIVDLQRSPMGRKQGGTLDDLEEQARELYRKLREKPRDQRTEGDSQEMVRLLLQAIQSFEKKVRVIYTQLSKTVVCKQKALELLPKVEEVVSLMNEDERTVVRLQEKRQKELWNLLKIACSKVRGPVSGSPDSMNVSRLSHPGQLMSQPSSACDSLPESDKKSEELVAEAHALCSRLESALQDTVKEQDRSFTTLDWSWLQMEDEERCSLEQACD
Take B1: the binding result in assay [1] is listed as “binds”.

B2: Recombinant IKKβ (protein, UniProt O88351 1-757)
chain: MSWSPSLPTQTCGAWEMKERLGTGGFGNVIRWHNQATGEQIAIKQCRQELSPKNRNRWCLEIQIMRRLNHPNVVAARDVPEGMQNLAPNDLPLLAMEYCQGGDLRRYLNQFENCCGLREGAVLTLLSDIASALRYLHENRIIHRDLKPENIVLQQGEKRLIHKIIDLGYAKELDQGSLCTSFVGTLQYLAPELLEQQKYTVTVDYWSFGTLAFECITGFRPFLPNWQPVQWHSKVRQKSEVDIVVSEDLNGAVKFSSSLPFPNNLNSVLAERLEKWLQLMLMWHPRQRGTDPQYGPNGCFRALDDILNLKLVHVLNMVTGTVHTYPVTEDESLQSLKTRIQENTGILETDQELLQKAGLVLLPDKPATQCISDSKTNEGLTLDMDLVFLLDNSKINYETQITPRPPPESVSCILQEPKRNLSFFQLRKVWGQVWHSIQTLKEDCNRLQQGQRAAMMSLLRNNSCLSKMKNAMASTAQQLKAKLDFFKTSIQIDLEKYKEQTEFGITSDKLLLAWREMEQAVEQCGRENDVKHLVERMMALQTDIVDLQRSPMGRKQGGTLDDLEEQARELYRKLREKPRDQRTEGDSQEMVRLLLQAIQSFEKKVRVIYTQLSKTVVCKQKALELLPKVEEVVSLMNEDERTVVRLQEKRQKELWNLLKIACSKVRGPVSGSPDSMNVSRLSHPGQLMSQPSSACDSLPESDKKSEELVAEAHALCSRLESALQDTVKEQDRSFTTLDWSWLQMEDEERCSLEQACD
For B2, in assay [2], the binding result is on record as “binds”.

B3: His-IKKβ (mouse) (protein, UniProt O88351 1-757)
chain: MSWSPSLPTQTCGAWEMKERLGTGGFGNVIRWHNQATGEQIAIKQCRQELSPKNRNRWCLEIQIMRRLNHPNVVAARDVPEGMQNLAPNDLPLLAMEYCQGGDLRRYLNQFENCCGLREGAVLTLLSDIASALRYLHENRIIHRDLKPENIVLQQGEKRLIHKIIDLGYAKELDQGSLCTSFVGTLQYLAPELLEQQKYTVTVDYWSFGTLAFECITGFRPFLPNWQPVQWHSKVRQKSEVDIVVSEDLNGAVKFSSSLPFPNNLNSVLAERLEKWLQLMLMWHPRQRGTDPQYGPNGCFRALDDILNLKLVHVLNMVTGTVHTYPVTEDESLQSLKTRIQENTGILETDQELLQKAGLVLLPDKPATQCISDSKTNEGLTLDMDLVFLLDNSKINYETQITPRPPPESVSCILQEPKRNLSFFQLRKVWGQVWHSIQTLKEDCNRLQQGQRAAMMSLLRNNSCLSKMKNAMASTAQQLKAKLDFFKTSIQIDLEKYKEQTEFGITSDKLLLAWREMEQAVEQCGRENDVKHLVERMMALQTDIVDLQRSPMGRKQGGTLDDLEEQARELYRKLREKPRDQRTEGDSQEMVRLLLQAIQSFEKKVRVIYTQLSKTVVCKQKALELLPKVEEVVSLMNEDERTVVRLQEKRQKELWNLLKIACSKVRGPVSGSPDSMNVSRLSHPGQLMSQPSSACDSLPESDKKSEELVAEAHALCSRLESALQDTVKEQDRSFTTLDWSWLQMEDEERCSLEQACD
With B3, in assay [3], the binding result is listed as “binds”.

B4: IKKβ (human) (protein, UniProt O14920-1 1-756)
chain: MSWSPSLTTQTCGAWEMKERLGTGGFGNVIRWHNQETGEQIAIKQCRQELSPRNRERWCLEIQIMRRLTHPNVVAARDVPEGMQNLAPNDLPLLAMEYCQGGDLRKYLNQFENCCGLREGAILTLLSDIASALRYLHENRIIHRDLKPENIVLQQGEQRLIHKIIDLGYAKELDQGSLCTSFVGTLQYLAPELLEQQKYTVTVDYWSFGTLAFECITGFRPFLPNWQPVQWHSKVRQKSEVDIVVSEDLNGTVKFSSSLPYPNNLNSVLAERLEKWLQLMLMWHPRQRGTDPTYGPNGCFKALDDILNLKLVHILNMVTGTIHTYPVTEDESLQSLKARIQQDTGIPEEDQELLQEAGLALIPDKPATQCISDGKLNEGHTLDMDLVFLFDNSKITYETQISPRPQPESVSCILQEPKRNLAFFQLRKVWGQVWHSIQTLKEDCNRLQQGQRAAMMNLLRNNSCLSKMKNSMASMSQQLKAKLDFFKTSIQIDLEKYSEQTEFGITSDKLLLAWREMEQAVELCGRENEVKLLVERMMALQTDIVDLQRSPMGRKQGGTLDDLEEQARELYRRLREKPRDQRTEGDSQEMVRLLLQAIQSFEKKVRVIYTQLSKTVVCKQKALELLPKVEEVVSLMNEDEKTVVRLQEKRQKELWNLLKIACSKVRGPVSGSPDSMNASRLSQPGQLMSQPSTASNSLPEPAKKSEELVAEAHNLCTLLENAIQDTVREQDQSFTALDWSWLQTEEEEHSCLEQAS
For the molecule B4, the binding result in assay [4] is on record as “binds”.
